The test system of this assay is MERS-CoV. Nature of the assay: microbe, parasite or virus in culture. Conditions: Middle East respiratory syndrome-related coronavirus, Vero C1008, read-out: IC50 value for MERS-CoV (TCID50 assay). The class given is cell-based.

The structures appear in SMILES notation. Where a name gives a salt, the structure may show the parent alone.

Broadly, the IC50 is the point on the concentration scale where inhibition reaches its midpoint. As for `Cc1ccc(NC(=O)c2ccc(CN3CCN(C)CC3)cc2)cc1Nc1nccc(-c2cccnc2)n1` [Imatinib mesylate], the IC50 stood at 14.5 µM.

Values taken from US10434116B2 (priority 2014, dated 2019).
